Data: publication doi:10.1101/2021.05.22.445238
Results are given in words; binding and its absence hold for the method and conditions named. In cells and extracts the contact can be indirect. Some binding calls cover weakened binding; strength is not graded here.

Chains of the proteins cited; added tags and fusions are not shown.
UniProt Q9H9S0: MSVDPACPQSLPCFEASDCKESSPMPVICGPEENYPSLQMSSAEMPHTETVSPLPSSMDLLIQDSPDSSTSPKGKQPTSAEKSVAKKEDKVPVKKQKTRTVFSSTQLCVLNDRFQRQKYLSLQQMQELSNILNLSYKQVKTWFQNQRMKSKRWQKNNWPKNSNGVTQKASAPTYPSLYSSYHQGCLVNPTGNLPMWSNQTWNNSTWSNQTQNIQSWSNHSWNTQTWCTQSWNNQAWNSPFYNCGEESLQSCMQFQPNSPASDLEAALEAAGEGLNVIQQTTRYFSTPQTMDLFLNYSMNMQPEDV
UniProt P36402: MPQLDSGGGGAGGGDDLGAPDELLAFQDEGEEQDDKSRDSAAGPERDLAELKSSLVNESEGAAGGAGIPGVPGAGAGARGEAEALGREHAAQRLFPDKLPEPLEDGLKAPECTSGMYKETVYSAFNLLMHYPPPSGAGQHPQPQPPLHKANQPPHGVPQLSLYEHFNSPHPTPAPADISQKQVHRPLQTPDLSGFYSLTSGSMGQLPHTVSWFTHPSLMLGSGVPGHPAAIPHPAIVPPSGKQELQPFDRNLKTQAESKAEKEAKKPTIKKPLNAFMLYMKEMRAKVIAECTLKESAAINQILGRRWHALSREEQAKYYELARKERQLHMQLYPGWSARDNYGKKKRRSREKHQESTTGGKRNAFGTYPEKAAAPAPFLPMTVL

Target: FLAG-NANOG (human) (UniProt Q9H9S0)
Assay: co-IP

- binding: binds
Substance: TCF7 (from UniProt P36402 1-384)
